Patent publication US8563259B2, “Complement-mediated thrombophilic assay” (The Trustees of the University of Pennsylvania, priority 2007, dated 2013)
Some entries share one result that the patent states for a list of compounds.

System: TF expression induced by activated complement in normal primary cells (monocytes or neutrophils)
Test: modified PT (mPT) assay with supernatant of healthy primary cells stimulated with patient serum, with or without complement inhibitor
Assay type: cell-based, human
Details: without inhibitor about 18-20 seconds
Text: To test serum for complement activating activity, serum was obtained from patients diagnosed with various disorders. Serum was obtained from patients diagnosed with: antiphospholipid syndrome (APS; n=26), systemic lupus erythymatosus (SLE; n=9), rheumatoid arthritis (n=12), sepsis (n=6), metastatic cancer (n=8) and inherited hypercoagulation (n=9). Serum was also obtained from healthy individuals (n=22).
Freshly obtained primary cells (monocytes or neutrophils) obtained from healthy donors were suspended in phosphate buffered saline (PBS). In parallel, the cells were stimulated with patient serum and with patient serum that was pre-incubated for 30 minutes with either 15 μM Compstatin or 10 μM C5aR antagonist to inhibit complement. The cells were incubated with serum for approximately 2 to 2.5 hours at 37° C. Subsequently, supernatant from the serum-incubated cells was obtained by centrifugation at 1000×g for 10 minutes. The supernatant was then assessed in a modified PT assay.
In a standard PT assay, 100 μl patient plasma is mixed with 200 μl commercial thromboplastin (International Sensitivity Index (ISI) 1.0 or ISI 1.9), and time of clotting is assessed by measuring in seconds the time required for clot formation after thromboplastin is added. […]

CC[C@H](C)[C@H](N)C(=O)N[C@H]1CSSC[C@@H](C(=O)N[C@H](C(N)=O)[C@@H](C)O)NC(=O)[C@H](CCCN=C(N)N)NC(=O)[C@H](Cc2cnc[nH]2)NC(=O)[C@H](Cc2cnc[nH]2)NC(=O)CNC(=O)[C@H](Cc2c[nH]c3ccccc23)NC(=O)[C@H](CC(=O)O)NC(=O)[C@H](CCC(N)=O)NC(=O)[C@H](C(C)C)NC(=O)[C@H](C(C)C)NC1=O [Compstatin, Ile-Cys-Val-Val-Gln-Asp-Trp-Gly-His-His-Arg-Cys-Thr]
mPT clotting time when activated complement in the test serum has been inhibited (remains unchanged): 32 to 37 s
